These are yes or no findings as the source states them, for the method shown. Binding seen in cells or lysates may run through a third protein. Here binding means that the protein was enriched with, or labelled near, the bait; the list need not be complete.
Target: eGFP-myosin VI (full-length), expressed in LNCaP cells (UniProt Q9UM54)
Assay: affinity purification with mass spectrometry; GFP-Trap agarose immunoprecipitation from RIPA lysates of LNCaP cells expressing eGFP-myosin VI or eGFP alone, treated with EtOH or DHT; label-free mass spectrometry; DHT compared with EtOH

Amino acid sequences for entries named in this document (tags omitted). A change or cut given only in a name is not applied to a line headed by its entry.
UniProt Q9UM54: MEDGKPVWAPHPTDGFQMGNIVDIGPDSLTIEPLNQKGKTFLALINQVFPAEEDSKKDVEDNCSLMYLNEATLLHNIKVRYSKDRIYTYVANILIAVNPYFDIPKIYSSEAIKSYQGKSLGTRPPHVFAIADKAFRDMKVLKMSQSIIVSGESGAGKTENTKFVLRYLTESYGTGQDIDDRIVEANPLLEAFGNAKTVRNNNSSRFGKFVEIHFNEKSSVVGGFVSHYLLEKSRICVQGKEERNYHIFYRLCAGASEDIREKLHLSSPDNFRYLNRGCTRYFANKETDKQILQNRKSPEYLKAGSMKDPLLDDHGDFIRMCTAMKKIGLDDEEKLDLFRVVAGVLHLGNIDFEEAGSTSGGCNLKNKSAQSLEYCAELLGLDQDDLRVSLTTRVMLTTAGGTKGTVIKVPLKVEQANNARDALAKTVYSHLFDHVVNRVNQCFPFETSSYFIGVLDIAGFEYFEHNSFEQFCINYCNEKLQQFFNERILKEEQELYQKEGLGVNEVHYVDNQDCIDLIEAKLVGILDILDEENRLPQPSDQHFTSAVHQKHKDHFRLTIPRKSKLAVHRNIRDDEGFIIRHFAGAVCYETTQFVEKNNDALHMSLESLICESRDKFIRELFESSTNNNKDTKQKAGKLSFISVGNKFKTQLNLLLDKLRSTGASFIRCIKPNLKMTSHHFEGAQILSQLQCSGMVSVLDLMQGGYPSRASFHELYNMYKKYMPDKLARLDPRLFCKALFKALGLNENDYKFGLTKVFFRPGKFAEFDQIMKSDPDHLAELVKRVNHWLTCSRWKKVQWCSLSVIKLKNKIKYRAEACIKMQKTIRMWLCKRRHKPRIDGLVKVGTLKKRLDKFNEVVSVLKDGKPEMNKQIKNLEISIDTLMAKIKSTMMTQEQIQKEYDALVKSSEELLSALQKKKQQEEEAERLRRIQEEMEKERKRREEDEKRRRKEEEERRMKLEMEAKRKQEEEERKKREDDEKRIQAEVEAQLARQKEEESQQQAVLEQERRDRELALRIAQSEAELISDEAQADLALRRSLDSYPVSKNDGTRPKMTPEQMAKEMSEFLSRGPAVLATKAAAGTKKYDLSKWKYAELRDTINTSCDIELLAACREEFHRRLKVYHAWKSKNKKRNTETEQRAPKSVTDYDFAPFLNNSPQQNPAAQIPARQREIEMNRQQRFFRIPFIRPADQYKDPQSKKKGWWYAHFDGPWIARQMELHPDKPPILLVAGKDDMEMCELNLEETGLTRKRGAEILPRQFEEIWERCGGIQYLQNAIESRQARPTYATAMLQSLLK
UniProt P07288: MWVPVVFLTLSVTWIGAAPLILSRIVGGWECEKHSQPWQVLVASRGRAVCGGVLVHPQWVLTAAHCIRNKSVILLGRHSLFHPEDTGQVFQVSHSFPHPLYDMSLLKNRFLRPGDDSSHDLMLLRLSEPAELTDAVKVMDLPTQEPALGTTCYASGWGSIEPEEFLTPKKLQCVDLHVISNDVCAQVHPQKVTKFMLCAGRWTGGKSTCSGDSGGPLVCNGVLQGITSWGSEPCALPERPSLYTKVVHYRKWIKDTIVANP
UniProt P10275: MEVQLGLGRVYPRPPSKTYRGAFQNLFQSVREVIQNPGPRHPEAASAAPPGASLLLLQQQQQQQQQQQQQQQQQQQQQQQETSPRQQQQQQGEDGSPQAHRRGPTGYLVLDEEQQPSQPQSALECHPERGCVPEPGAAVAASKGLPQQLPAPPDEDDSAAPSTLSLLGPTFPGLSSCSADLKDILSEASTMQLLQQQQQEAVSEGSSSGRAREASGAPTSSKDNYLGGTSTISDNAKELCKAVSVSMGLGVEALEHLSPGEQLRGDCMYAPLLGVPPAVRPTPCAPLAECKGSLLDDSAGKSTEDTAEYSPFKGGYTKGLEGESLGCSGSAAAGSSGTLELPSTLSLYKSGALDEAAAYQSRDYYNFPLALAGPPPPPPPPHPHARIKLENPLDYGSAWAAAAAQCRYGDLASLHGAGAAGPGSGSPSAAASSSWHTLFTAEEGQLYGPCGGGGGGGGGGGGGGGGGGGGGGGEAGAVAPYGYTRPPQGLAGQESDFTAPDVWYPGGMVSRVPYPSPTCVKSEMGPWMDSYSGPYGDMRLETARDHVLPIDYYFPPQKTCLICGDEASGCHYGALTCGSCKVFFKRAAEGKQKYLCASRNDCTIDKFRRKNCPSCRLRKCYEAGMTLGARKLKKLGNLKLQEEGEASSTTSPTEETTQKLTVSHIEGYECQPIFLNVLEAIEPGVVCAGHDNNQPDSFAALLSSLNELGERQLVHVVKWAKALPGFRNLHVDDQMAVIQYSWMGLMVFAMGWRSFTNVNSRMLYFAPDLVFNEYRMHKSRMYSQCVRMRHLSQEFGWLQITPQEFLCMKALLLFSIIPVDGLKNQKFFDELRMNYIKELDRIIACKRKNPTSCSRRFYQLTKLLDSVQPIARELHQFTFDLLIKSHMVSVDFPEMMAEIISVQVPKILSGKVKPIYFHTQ

Substance | binding
KLK3/prostate-specific antigen (PSA) (from UniProt P07288) (enzyme) | binds
androgen receptor (AR), endogenous in LNCaP cells (from UniProt P10275 1-920) | binds
